Experiment [1] has as its target HA-Alba4 (Trypanosoma brucei) (UniProt Q583J0). As to the kind of experiment: co-IP; HA-tagged bait induced with tetracycline in procyclic T. brucei; extract in IP buffer (20 mM Tris-HCl pH 7.6, 150 mM NaCl, 1 mM EDTA, 1 mM DTT, 0.5% NP-40) with RNase inhibitor; anti-HA affinity matrix, 2 h, 4°C; immunoblot with Alba-specific or anti-P0 antibodies; cycloheximide or puromycin before the CoIP did not affect Alba3/eIF4E4.

Chains of the proteins cited; added tags and fusions are not shown. Lines headed by an entry give the natural chain unless they say otherwise; changes in a name come on top.
UniProt Q583J0: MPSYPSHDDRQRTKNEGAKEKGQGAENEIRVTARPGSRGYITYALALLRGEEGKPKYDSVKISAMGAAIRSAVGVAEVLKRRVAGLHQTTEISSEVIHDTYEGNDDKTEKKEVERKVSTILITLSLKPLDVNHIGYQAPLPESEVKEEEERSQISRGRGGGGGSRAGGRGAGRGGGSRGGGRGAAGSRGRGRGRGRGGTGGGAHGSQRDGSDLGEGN
UniProt Q583I9: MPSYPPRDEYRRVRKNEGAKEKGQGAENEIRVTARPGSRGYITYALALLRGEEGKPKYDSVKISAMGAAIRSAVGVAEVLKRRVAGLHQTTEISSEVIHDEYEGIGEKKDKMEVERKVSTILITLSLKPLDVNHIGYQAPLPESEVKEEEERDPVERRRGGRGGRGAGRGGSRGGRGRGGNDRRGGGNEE

The target is the same in experiment [2]. As to the kind of experiment: co-IP; as the CoIP with HA-tagged baits, but RNase inhibitor replaced with RNase A (5-20 µg; 10 to 40 µg/ml) in the extract.
Experiment [3] addresses T1, HA-Alba2 (Trypanosoma brucei) (UniProt Q385X2).
T1 sequence: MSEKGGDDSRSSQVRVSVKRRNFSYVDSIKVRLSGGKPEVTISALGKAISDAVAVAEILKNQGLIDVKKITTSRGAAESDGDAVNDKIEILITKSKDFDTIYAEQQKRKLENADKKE
Kind of experiment: co-IP; HA-tagged bait induced with tetracycline in procyclic T. brucei; extract in IP buffer (20 mM Tris-HCl pH 7.6, 150 mM NaCl, 1 mM EDTA, 1 mM DTT, 0.5% NP-40) with RNase inhibitor; anti-HA affinity matrix, 2 h, 4°C; immunoblot with Alba-specific or anti-P0 antibodies; cycloheximide or puromycin before the CoIP did not affect Alba3/eIF4E4.

For experiment [4], the target named is T1, HA-Alba2 (Trypanosoma brucei). Kind of experiment: co-IP; as the CoIP with HA-tagged baits, but RNase inhibitor replaced with RNase A (5-20 µg; 10 to 40 µg/ml) in the extract.
The target in experiment [5] is PTP-tagged eIF4G3 (Trypanosoma brucei). As to the kind of experiment: co-IP; PTP-tagged versions of eIF4G3 as bait; no figure and no further details.
The target of experiment [6] is HA-tagged eIF4G3 (Trypanosoma brucei). As to the kind of experiment: co-IP; HA-tagged bait induced with tetracycline in procyclic T. brucei; extract in IP buffer (20 mM Tris-HCl pH 7.6, 150 mM NaCl, 1 mM EDTA, 1 mM DTT, 0.5% NP-40) with RNase inhibitor; anti-HA affinity matrix, 2 h, 4°C; immunoblot with Alba-specific or anti-P0 antibodies; cycloheximide or puromycin before the CoIP did not affect Alba3/eIF4E4. A general note: A western blot detects proteins with antibodies after separation by electrophoresis.

Four molecules from paper PMC3141063 can be followed below.

Results are given in words; binding and its absence hold for the method and conditions named. In cells and extracts the contact can be indirect. For some of these results: A result given as binding can be weak or reduced; the word gives no strength. For some of these results: Where a sequence is shown, tags or fusion partners need not be part of it.

On to Alba3 (from UniProt Q583I9), for which the binding entry in experiment [1] and in experiment [2] was “binds” in each case.
For the molecule ribosomal stalk protein P0, the binding result in experiment [3] and in experiment [4] was “binds” in each case.

B1: Alba1 (protein, UniProt Q385X1 1-125)
chain: MTTGKSDRPRNSVRVGYRGTKFLFVDITKHLLHDGEKEVYVSALGGAINEAVSVVEMLKDQQMVVVKKITTSRQVSEEPDDGPVDKIEIVVTKADGFDAKYEEQQKAREAKRLEKEKNEKEKATA
In the case of B1, the binding result in experiment [5] and in experiment [6] was “no binding” each time.

B2: Alba2 (protein, UniProt Q385X2 1-117)
chain: T1 sequence
Turning to B2, the binding entry was “no binding” in experiment [5], “no binding” in experiment [6], “binds” in experiment [1] and “binds” in experiment [2].
